Among the data in publication PMC10798966 are binding values, retold here.

Protein sequences, listed by entry. Tags and fused reporters are not part of them. Lines headed by an entry give the natural chain unless they say otherwise; changes in a name come on top.
UniProt P16297: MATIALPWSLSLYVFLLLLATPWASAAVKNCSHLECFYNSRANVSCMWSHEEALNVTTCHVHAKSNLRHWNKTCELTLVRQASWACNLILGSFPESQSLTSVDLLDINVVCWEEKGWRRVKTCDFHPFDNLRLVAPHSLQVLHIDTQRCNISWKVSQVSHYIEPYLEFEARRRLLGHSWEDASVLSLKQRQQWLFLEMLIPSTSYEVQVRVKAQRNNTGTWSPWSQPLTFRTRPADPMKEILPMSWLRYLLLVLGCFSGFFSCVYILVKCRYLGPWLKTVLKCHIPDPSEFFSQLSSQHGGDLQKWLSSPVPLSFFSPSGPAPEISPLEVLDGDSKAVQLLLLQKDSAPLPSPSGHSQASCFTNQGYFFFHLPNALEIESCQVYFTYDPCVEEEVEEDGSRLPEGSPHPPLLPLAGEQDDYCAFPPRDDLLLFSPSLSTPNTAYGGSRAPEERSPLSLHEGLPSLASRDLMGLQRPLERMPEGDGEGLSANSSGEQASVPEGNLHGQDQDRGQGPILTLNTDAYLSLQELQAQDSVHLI
UniProt P24161: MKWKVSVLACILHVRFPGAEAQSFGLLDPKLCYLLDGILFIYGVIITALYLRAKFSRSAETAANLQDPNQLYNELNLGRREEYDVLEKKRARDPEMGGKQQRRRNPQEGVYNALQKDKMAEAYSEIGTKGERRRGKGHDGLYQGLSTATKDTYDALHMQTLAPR
UniProt Q8BHD8: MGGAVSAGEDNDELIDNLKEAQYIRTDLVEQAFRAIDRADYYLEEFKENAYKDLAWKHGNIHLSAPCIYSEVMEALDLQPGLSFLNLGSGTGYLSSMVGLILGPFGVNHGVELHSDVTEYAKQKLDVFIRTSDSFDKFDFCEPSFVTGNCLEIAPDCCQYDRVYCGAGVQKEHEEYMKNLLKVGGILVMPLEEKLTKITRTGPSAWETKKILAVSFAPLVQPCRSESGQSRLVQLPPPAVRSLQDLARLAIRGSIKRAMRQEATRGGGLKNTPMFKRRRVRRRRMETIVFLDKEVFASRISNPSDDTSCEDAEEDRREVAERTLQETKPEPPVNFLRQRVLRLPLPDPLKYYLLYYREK

These are yes or no findings as the source states them, for the method shown. Binding seen in cells or lysates may run through a third protein. A result given as binding can be weak or reduced; the word gives no strength.

Experiment [1] has as its target GFP-IL2RB (intracellular domain of IL2RB) (UniProt P16297). Put plainly: co-IP; HEK293T cells transfected with the indicated constructs for 24 h, MG132 (20 µM) 4 h before collection; lysis in 50 mM HEPES, 150 mM NaCl, 1% Triton X-100, 0.5% NP40; IP with anti-HA, anti-Myc or anti-GFP, western blotting. Background: In western blotting, separated proteins are transferred to a membrane and probed.

For experiment [2], the target named is GFP-CD247 (intracellular domain of CD247) (UniProt P24161). Described as above.

Regarding HA-PCMTD2 (from UniProt Q8BHD8 1-359), the binding result in experiment [1] and in experiment [2] was “binds” in each case.
